Test results as given in PubChem BioAssay AID1487 (National Center for Advancing Translational Sciences (NCATS), 2009).
The list shows a part of the results. Further columns of the screen follow, without active or inactive calls. Most of these compounds were active or inconclusive in the main read-out, so they are no random draw. Words in brackets tell the shape of the fitted curve; partial curves, single points and poor fits give uncertain potencies.

Test: qHTS Assay for Modulators of Lamin A Splicing
Conditions: HeLa LMNA splicing GFP/RFP minigene ratio, 48 h
How it was run: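 S3 HeLa stable clones carrying a lamin A-EGFP splicing minigene plus DsRed2 were seeded at 600 cells/well in Opti-MEM with 2% FBS, pin-dosed and incubated 48 h at 37°C. Acumen cytometry (488 nm) gave the GFP/RFP total-intensity ratio.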

[1] = measured here: GFP splicing reporter channel
[2] = measured here: RFP viability control channel

| SMILES | AC50 [1] | AC50 [2] |
| --- | --- | --- |
| Cc1ccccc1Cn1nc(C)c(NC(=O)c2cc(-c3cccs3)on2)c1C | 15.8 µM [rising, single point] | 22.4 µM [rising, single point] |
| COc1cccc(/C=N/NC(=O)c2ccccc2)c1OS(=O)(=O)c1ccccc1 | 5.01 µM [rising, partial curve] | 2.82 µM [rising, partial curve] |
| CC(=O)N1CCc2c(sc3c2c(=O)n(-c2cccc(Cl)c2)c(=O)n3Cc2ccc(F)cc2Cl)C1 | 0.01 µM [falling, full curve, poor fit] | 0.178 µM [falling, full curve, poor fit] |
| CCC(C)c1ccc(NC(=S)Nc2ccc(OC)c(OC)c2)cc1 (stereo not given) | – | 35.5 µM [rising, single point] |
| CCOC(=O)c1noc2nc(C)n(CC(=O)Nc3ccc(OC)c(Cl)c3)c(=O)c12 | 0.00398 µM [rising, full curve, poor fit] | – |
| Cc1ccc(C(=O)N/C(=C\c2ccc(-c3ccc(Br)cc3)o2)C(=O)NC2CCS(=O)(=O)C2)cc1 (stereo not given) | 22.4 µM [falling, single point] | 25.1 µM [falling, single point] |
| O=C(Nc1cc(S(=O)(=O)N2CCCCC2)ccc1Cl)c1ccccc1NS(=O)(=O)c1ccc(F)cc1 | 3.55 µM [rising, single point] | – |
| Cc1cccc(C(=O)N2CCC(=O)N(C(COCc3cccc(C(F)(F)F)c3)Cc3ccccc3)CC2)c1 (stereo not given) | 35.5 µM [rising, partial curve, poor fit] | 35.5 µM [rising, partial curve, poor fit] |
| C=CCn1c(=N)n(CC(O)COc2ccc(OC)cc2)c2ccccc21 (stereo not given) | 20 µM [rising, partial curve] | 22.4 µM [rising, partial curve, poor fit] |
| O=C(Nc1ccc(N2CCOCC2)cc1)c1cc2ccccc2o1 | – | 35.5 µM [rising, single point] |
| Oc1cc2ccccc2cc1-c1n[nH]c(=S)o1 | – | 14.1 µM [rising, single point] |
| CC1=Nc2ccc(C)cc2/C1=C/c1c(N)n2oc(C)cc2nc1=O | 3.16 µM [rising, full curve, poor fit] | – |
| O=C1c2ccccc2C(=O)c2c(Nc3ccc(CCO)cc3)ccc(O)c21 | 10 µM [falling, partial curve, poor fit] | 11.2 µM [falling, partial curve] |
| O=S(=O)(c1ccccc1)n1nc(-c2ccccc2)nc1NCc1ccco1 | 14.1 µM [rising, single point] | 20 µM [rising, single point] |
| COc1ccc(CCC(=O)OC(C)C(=O)c2ccc(C)cc2)cc1 (stereo not given) | – | 0.178 µM [rising, full curve] |
| C=C(CCC(=O)c1ccccc1)C(=O)c1ccccc1 | 35.5 µM [falling, single point] | 35.5 µM [falling, single point] |
| N#CC(c1ccc(F)cc1)c1ccc(C(=O)c2ccc(F)cc2)cc1 (stereo not given) | – | 12.6 µM [rising, single point] |
| CCN(CCN(C)C)C(=O)C1CCN(S(=O)(=O)c2c(C)noc2/C=C/c2ccccc2F)CC1 | – | 17.8 µM [rising, single point] |
| CCn1c(CNc2cccc(Cl)c2)nnc1SCc1ccccc1 | – | 14.1 µM [rising, partial curve] |
| CCN1/C(=C/c2ccc3cc(C)ccc3[n+]2CC)Sc2cc(C)ccc21 | 3.98 µM [rising, partial curve] | 2.82 µM [rising, full curve] |
| COc1ccc(OC)c(NC(=S)N(CCc2c(C)[nH]c3ccccc23)Cc2cccs2)c1 | – | 12.6 µM [rising, partial curve, poor fit] |
| CC1CCN(C(=O)C2CCN(C(=O)c3cc4sccc4n3Cc3ccc(F)cc3)CC2)CC1 | – | 5.01 µM [rising, full curve] |
| Cn1c(C(O)C(O)c2ccccc2)nc2ccccc21 (stereo not given) | – | 0.00316 µM [falling, full curve, poor fit] |
| O=C(Nc1ccc2c(c1)nc1n2CCSC1)c1ccco1 | 0.158 µM [rising, full curve, poor fit] | 0.00316 µM [rising, full curve, poor fit] |
| CCCOC(=O)c1ccc(O)cc1 | 8.91 µM [rising, partial curve, poor fit] | – |
| O=C(CSc1ncnc2nc[nH]c12)N1CCN(c2ccc(Cl)cc2)CC1 | 8.91 µM [rising, partial curve] | 10 µM [rising, partial curve] |
| Cc1ccc(-c2oc3ccccc3c(=O)c2O)cc1 | 22.4 µM [rising, single point] | 35.5 µM [rising, single point] |

| SMILES | AC50 [1] | AC50 [2] |
| --- | --- | --- |
| CC(C)N(Cc1nc(-c2ccccc2)no1)C(=O)c1ccc(Cl)cc1 | – | 12.6 µM [rising, single point] |
| Cc1ccc(C)c(NC(=O)C(c2ccccc2)N2Cc3ccccc3C2=O)c1 (stereo not given) | 0.01 µM [falling, full curve, poor fit] | 0.02 µM [falling, full curve, poor fit] |
| CN(C)CCNC(=O)c1sc2cccc(F)c2c1Cl | 2 µM [rising, partial curve, poor fit] | – |
| O=C1SCC(c2ccc(Cl)cc2Cl)=NN1Cc1nnc(-c2ccccc2)o1 | – | 14.1 µM [rising, partial curve, poor fit] |
| CC(=O)N1CCCc2cc(S(=O)(=O)N3CCN(c4cccc(C(F)(F)F)c4)CC3)ccc21 | 11.2 µM [falling, partial curve, poor fit] | 15.8 µM [falling, partial curve, poor fit] |
| Cc1ccc(-c2cc(C(F)(F)F)nn2-c2ccc(S(N)(=O)=O)cc2)cc1 | – | 35.5 µM [rising, single point] |
| Cc1ccc2cc(C#N)c(NCCNC(=O)C3CC3)nc2c1C | – | 12.6 µM [rising, partial curve] |
| Cn1cc(/C=N/NC(=O)c2cccc([N+](=O)[O-])c2)c2ccccc21 | – | 7.08 µM [rising, partial curve, poor fit] |
| O=C(N/N=C/c1cccs1)c1n[nH]c2c1CCC2 | – | 8.91 µM [rising, partial curve, poor fit] |
| COc1cccc(NS(=O)(=O)c2ccc3c(c2)CCCN3C(=O)C2CCC2)c1 | 5.62 µM [falling, partial curve, poor fit] | – |
| CCOC(=O)c1cnc2ccc(OC)cc2c1Nc1ccc2c(c1)OCCO2 | 12.6 µM [rising, single point] | – |
| COc1ccc2[nH]c3c(=O)n(CCCCC(=O)N4CCC(C(N)=O)CC4)c(=S)[nH]c3c2c1 | – | 25.1 µM [falling, single point] |
| COc1ccc(-c2nn(-c3cccc([N+](=O)[O-])c3)c3c2cnc2cc4c(cc23)OCO4)cc1 | 0.178 µM [rising, partial curve] | 15.8 µM [rising, single point] |
| Cc1cc(C)c(C2=CSC3=NS(=O)(=O)CCN23)c(C)c1 | 0.0251 µM [falling, full curve, poor fit] | 0.0631 µM [falling, full curve, poor fit] |
| CSc1ncc(CN2CCN(CCC(C)C)C(CCO)C2)cn1 (stereo not given) | 5.01 µM [falling, full curve, poor fit] | 2.24 µM [falling, full curve] |
| CC(=O)Nc1ccc(S(=O)(=O)Nc2cccc(-c3nc4ccccc4o3)c2)cc1 | – | 12.6 µM [rising, single point] |
| CCC(=O)Nc1sc2c(c1C(=O)Nc1cccc(C)c1)CCCC2 | – | 6.31 µM [rising, single point] |
| CCNc1ncc2nc(-c3ccc(F)cc3)c(=O)n(C)c2n1 | 12.6 µM [falling, partial curve, poor fit] | 14.1 µM [falling, partial curve] |
| O=C(Nc1ccc(S(=O)(=O)N2CCCCC2)cc1)c1ccncc1 | – | 14.1 µM [rising, partial curve] |
| CC(C)CC(=O)NCc1ccc2[nH]c3c(c2c1)CCCC3 | 6.31 µM [falling, single point] | – |
| CC1(C)Cc2c(c(-c3ccccc3)[nH]c(=O)c2C#N)CO1 | 7.94 µM [rising, partial curve, poor fit] | 7.94 µM [rising, partial curve] |
| CC(C)(C)c1ccc(C(=O)NC(Cc2c[nH]c3ccccc23)C(=O)OCC(=O)c2ccc(Cl)cc2)cc1 (stereo not given) | 0.355 µM [falling, full curve, poor fit] | 0.282 µM [falling, full curve, poor fit] |
| Cc1ccc(NC(=O)c2ccc(Cn3cc([N+](=O)[O-])cn3)cc2)c(C)c1 | 8.91 µM [rising, partial curve, poor fit] | 1.41 µM [rising, partial curve] |
| COc1cc(OC)cc(-c2cc3nc(C)c(CCC(=O)NC(C)CCc4ccco4)c(C)n3n2)c1 (stereo not given) | – | 15.8 µM [rising, single point] |
| N=c1c2c(n(Cc3ccc(Cl)cc3)c3c1CCC3)CCC2 | – | 14.1 µM [rising, partial curve] |
| CCc1ccc(NC(=O)CCNS(=O)(=O)c2ccc3c(c2)CCCC(=O)N3)cc1 | – | 0.708 µM [rising, full curve] |
